Assay results as given in publication doi:10.1101/2024.10.04.616721.
The exact form of at least one protein or probe is not confirmed. For part of these data: At least one verdict was read from the data and is not stated in words by the source.

By UniProt entry, the sequences of proteins in these tests, tags left out. Residues count along the entry.
UniProt P25490, 293-414: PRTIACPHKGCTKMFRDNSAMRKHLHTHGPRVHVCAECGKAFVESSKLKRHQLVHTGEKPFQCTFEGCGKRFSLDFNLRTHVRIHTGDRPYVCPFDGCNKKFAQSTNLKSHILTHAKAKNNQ
UniProt P25490, whole entry: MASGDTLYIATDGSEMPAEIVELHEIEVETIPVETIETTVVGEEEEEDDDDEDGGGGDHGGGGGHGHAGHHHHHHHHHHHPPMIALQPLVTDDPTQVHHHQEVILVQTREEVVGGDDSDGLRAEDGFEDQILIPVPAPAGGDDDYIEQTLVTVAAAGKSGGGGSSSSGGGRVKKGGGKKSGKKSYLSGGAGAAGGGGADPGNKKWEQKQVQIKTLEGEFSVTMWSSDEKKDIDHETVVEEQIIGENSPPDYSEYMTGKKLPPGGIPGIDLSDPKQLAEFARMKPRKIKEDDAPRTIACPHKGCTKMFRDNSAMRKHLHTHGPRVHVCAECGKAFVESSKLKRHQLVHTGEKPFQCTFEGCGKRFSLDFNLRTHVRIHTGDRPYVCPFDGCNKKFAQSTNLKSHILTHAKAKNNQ
UniProt P25490, 164-301: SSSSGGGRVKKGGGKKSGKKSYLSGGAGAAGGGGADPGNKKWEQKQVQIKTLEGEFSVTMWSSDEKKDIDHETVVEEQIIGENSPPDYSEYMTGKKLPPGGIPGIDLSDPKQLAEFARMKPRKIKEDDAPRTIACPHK

Columns and labels:
Experiment in all cases: fluorescence polarization
YY1 ZnF module = YY1 ZnF module (UniProt P25490); conditions: residues 293-414
YY1 full length = YY1 full length (UniProt P25490); conditions: residues 1-414
YY1 REPO-NAB = YY1 REPO-NAB (UniProt P25490); conditions: residues 164-301

Does UUUUUUUUUUUUUUUUUUUUUUUU [24U RNA] bind (YY1 ZnF module)?
Result: binds

And the Kd (YY1 full length)?
The Kd was 1200 nM.

Does UUUUUUUUUUUUUUUUUUUUUUUU [24U RNA] bind (YY1 REPO-NAB)?
Result: binds
